Experimental data published in paper PMC7594058.

Sequences of proteins named here, by UniProt entry; tags and fusion partners are left off. A change or cut given only in a name is not applied to a line headed by its entry.
UniProt P03083: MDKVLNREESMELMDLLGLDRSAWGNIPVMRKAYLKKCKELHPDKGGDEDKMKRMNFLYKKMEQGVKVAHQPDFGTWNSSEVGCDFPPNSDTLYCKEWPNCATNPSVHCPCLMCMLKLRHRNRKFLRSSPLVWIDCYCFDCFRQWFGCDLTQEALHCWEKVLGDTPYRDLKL
UniProt P03072: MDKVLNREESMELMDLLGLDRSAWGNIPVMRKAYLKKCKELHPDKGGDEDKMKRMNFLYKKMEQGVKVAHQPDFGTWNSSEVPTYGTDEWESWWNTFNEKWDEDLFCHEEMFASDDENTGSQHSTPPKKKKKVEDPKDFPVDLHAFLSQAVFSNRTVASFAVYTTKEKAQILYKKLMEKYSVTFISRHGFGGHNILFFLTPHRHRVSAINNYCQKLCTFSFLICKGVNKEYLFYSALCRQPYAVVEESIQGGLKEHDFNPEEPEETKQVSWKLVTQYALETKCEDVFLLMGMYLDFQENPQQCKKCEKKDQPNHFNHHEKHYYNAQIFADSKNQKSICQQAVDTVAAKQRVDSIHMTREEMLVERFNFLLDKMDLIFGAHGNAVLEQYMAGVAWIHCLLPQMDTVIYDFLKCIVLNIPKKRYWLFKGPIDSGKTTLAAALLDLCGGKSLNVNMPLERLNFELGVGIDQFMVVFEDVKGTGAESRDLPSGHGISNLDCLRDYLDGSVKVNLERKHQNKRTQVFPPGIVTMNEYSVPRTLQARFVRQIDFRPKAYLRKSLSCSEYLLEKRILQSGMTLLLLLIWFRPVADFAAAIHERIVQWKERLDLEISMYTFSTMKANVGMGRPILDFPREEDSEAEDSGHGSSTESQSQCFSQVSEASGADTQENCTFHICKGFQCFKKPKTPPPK
UniProt Q9UHB6: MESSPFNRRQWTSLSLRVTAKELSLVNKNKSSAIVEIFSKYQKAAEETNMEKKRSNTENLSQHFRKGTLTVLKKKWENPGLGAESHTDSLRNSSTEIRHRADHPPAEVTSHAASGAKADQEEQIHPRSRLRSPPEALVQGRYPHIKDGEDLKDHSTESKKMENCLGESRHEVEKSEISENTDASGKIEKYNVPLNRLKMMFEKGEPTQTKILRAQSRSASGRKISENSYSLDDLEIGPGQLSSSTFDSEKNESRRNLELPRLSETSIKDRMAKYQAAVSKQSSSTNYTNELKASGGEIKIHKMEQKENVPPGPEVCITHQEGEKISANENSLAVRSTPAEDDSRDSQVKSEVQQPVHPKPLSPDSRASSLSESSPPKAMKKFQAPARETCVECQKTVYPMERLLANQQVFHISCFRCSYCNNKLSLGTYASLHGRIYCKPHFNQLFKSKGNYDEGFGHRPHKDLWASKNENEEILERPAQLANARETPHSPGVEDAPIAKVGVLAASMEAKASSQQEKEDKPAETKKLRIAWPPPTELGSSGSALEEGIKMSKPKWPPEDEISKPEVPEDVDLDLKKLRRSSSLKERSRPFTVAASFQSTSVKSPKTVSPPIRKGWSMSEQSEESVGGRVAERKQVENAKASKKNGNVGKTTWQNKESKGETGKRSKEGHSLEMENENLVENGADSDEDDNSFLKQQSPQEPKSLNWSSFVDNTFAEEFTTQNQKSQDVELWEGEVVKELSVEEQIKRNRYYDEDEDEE
UniProt O43795: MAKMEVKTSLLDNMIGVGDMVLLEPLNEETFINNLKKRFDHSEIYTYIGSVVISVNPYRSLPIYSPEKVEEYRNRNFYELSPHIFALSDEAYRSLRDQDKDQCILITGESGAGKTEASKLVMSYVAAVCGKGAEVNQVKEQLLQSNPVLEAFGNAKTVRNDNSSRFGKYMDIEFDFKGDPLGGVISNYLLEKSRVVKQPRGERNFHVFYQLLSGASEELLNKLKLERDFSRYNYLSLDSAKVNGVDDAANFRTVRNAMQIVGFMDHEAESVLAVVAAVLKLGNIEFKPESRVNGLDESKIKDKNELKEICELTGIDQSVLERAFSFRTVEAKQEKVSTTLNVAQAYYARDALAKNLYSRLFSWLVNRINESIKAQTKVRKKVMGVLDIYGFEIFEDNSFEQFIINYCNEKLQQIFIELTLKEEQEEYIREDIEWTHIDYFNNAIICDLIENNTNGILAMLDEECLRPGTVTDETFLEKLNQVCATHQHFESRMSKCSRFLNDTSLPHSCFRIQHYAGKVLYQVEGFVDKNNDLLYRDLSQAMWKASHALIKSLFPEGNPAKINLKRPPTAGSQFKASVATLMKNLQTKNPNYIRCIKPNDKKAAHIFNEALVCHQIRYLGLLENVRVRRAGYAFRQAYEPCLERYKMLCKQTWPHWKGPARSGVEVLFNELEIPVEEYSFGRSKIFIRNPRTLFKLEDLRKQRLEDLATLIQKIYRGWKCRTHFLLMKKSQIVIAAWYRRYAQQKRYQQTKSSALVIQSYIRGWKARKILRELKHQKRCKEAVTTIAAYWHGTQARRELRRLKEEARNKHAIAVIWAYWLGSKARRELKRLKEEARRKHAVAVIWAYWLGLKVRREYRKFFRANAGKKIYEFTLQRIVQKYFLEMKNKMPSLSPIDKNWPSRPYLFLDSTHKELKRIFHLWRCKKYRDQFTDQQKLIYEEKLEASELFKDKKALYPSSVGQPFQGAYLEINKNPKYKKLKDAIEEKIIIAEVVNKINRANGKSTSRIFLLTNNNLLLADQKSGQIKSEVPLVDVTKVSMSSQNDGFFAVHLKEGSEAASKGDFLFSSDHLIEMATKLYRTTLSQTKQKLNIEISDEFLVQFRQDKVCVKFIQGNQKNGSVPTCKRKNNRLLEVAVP
UniProt P31942: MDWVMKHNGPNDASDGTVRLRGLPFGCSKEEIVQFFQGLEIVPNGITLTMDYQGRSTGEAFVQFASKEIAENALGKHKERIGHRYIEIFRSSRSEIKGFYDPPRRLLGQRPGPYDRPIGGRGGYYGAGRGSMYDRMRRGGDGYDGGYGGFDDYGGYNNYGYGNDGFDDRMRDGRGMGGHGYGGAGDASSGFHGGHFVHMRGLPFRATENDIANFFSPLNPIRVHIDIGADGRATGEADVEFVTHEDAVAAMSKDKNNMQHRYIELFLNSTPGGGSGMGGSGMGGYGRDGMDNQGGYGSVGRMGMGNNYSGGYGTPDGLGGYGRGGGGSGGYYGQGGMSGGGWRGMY
UniProt Q14247: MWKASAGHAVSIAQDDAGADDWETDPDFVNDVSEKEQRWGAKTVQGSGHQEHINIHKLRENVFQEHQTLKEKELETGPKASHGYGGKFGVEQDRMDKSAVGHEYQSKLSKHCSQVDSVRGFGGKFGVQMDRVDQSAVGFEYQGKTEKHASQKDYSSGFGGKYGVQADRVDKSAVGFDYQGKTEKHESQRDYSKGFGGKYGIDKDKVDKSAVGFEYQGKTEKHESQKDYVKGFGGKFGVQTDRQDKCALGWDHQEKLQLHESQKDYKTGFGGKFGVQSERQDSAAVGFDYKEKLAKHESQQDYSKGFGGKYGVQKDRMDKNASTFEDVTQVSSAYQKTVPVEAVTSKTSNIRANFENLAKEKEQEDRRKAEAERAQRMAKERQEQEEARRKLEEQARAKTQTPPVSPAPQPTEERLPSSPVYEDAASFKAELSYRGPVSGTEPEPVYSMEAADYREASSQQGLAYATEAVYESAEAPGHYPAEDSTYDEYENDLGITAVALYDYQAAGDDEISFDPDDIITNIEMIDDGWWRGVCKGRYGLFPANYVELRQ
UniProt Q92598: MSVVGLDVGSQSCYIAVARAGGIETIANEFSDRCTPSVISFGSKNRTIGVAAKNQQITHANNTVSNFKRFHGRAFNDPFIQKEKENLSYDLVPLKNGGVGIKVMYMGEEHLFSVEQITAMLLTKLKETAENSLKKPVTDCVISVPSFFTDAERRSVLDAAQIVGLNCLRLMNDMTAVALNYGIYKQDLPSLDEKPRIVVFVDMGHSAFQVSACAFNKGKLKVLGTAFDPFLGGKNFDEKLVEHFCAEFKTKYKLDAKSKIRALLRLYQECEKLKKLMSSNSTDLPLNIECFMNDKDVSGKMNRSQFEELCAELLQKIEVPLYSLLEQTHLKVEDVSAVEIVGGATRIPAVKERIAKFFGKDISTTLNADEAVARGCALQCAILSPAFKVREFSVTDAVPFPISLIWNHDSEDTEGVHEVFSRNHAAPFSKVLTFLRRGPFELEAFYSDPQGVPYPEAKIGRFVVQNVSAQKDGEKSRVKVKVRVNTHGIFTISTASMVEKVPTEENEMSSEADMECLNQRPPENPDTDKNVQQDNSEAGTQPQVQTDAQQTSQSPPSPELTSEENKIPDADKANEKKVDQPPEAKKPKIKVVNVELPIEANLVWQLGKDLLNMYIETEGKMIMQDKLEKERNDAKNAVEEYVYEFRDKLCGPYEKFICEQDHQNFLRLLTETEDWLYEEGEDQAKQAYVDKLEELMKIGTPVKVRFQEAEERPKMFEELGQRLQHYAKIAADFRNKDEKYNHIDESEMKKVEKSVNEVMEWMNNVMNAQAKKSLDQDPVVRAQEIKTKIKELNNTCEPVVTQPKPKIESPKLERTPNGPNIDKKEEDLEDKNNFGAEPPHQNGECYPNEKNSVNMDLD
UniProt Q9UM54: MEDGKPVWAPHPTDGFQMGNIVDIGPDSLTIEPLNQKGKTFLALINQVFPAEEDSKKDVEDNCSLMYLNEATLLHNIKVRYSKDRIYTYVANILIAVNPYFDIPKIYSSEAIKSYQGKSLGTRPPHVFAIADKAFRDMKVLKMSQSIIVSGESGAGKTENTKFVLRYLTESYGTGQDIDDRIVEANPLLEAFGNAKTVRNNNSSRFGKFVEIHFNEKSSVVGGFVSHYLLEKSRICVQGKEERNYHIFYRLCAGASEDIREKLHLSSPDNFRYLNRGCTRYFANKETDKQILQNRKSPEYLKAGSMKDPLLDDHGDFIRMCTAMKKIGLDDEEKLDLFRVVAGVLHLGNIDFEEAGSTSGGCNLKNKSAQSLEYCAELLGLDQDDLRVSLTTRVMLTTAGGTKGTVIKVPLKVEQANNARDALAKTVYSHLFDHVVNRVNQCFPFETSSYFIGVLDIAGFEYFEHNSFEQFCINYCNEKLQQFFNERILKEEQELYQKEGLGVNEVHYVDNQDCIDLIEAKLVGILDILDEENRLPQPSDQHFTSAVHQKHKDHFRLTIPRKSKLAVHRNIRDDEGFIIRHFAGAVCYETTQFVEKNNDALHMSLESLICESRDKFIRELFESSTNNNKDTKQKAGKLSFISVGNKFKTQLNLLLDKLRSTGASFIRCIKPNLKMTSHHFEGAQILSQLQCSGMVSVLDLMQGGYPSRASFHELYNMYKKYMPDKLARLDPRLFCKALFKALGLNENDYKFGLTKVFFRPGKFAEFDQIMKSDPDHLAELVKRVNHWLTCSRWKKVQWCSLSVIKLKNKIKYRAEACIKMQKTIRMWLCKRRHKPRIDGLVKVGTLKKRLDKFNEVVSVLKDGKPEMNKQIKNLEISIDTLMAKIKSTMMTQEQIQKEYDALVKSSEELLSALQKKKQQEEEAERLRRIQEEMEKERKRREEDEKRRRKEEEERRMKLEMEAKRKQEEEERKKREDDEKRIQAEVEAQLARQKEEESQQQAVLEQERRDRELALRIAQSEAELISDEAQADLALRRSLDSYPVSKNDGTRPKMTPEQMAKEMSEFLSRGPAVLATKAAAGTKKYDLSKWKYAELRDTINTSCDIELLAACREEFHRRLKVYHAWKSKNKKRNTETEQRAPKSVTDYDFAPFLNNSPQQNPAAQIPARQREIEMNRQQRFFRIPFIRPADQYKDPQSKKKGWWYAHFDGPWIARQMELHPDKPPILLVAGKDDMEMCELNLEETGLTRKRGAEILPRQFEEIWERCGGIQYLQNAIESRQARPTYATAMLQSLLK
UniProt P45973: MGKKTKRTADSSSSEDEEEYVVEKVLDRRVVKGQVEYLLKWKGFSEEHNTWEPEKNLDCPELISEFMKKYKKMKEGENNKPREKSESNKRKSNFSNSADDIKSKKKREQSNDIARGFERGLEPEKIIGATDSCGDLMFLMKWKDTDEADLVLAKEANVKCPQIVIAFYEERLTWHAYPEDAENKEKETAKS

B1: Protein LTV1 homolog (protein, UniProt Q96GA3 1-475)
chain: MPHRKKKPFIEKKKAVSFHLVHRSQRDPLAADESAPQRVLLPTQKIDNEERRAEQRKYGVFFDDDYDYLQHLKEPSGPSELIPSSTFSAHNRREEKEETLVIPSTGIKLPSSVFASEFEEDVGLLNKAAPVSGPRLDFDPDIVAALDDDFDFDDPDNLLEDDFILQANKATGEEEGMDIQKSENEDDSEWEDVDDEKGDSNDDYDSAGLLSDEDCMSVPGKTHRAIADHLFWSEETKSRFTEYSMTSSVMRRNEQLTLHDERFEKFYEQYDDDEIGALDNAELEGSIQVDSNRLQEVLNDYYKEKAENCVKLNTLEPLEDQDLPMNELDESEEEEMITVVLEEAKEKWDCESICSTYSNLYNHPQLIKYQPKPKQIRISSKTGIPLNVLPKKGLTAKQTERIQMINGSDLPKVSTQPRSKNESKEDKRARKQAIKEERKERRVEKKANKLAFKLEKRRQEKELLNLKKNVEGLKL
B2: Remodeling and spacing factor 1 (protein, UniProt Q96T23 1-1441)
chain: MATAAAAAAVMAPPGCPGSCPNFAVVCSFLERYGPLLDLPELPFPELERVLQAPPPDVGNGEVPKELVELHLKLMRKIGKSVTADRWEKYLIKICQEFNSTWAWEMEKKGYLEMSVECKLALLKYLCECQFDDNLKFKNIINEEDADTMRLQPIGRDKDGLMYWYQLDQDHNVRMYIEEQDDQDGSSWKCIVRNRNELAETLALLKAQIDPVLLKNSSQQDNSSRESPSLEDEETKKEEETPKQEEQKESEKMKSEEQPMDLENRSTANVLEETTVKKEKEDEKELVKLPVIVKLEKPLPENEEKKIIKEESDSFKENVKPIKVEVKECRADPKDTKSSMEKPVAQEPERIEFGGNIKSSHEITEKSTEETEKLKNDQQAKIPLKKREIKLSDDFDSPVKGPLCKSVTPTKEFLKDEIKQEEETCKRISTITALGHEGKQLVNGEVSDERVAPNFKTEPIETKFYETKEESYSPSKDRNIITEGNGTESLNSVITSMKTGELEKETAPLRKDADSSISVLEIHSQKAQIEEPDPPEMETSLDSSEMAKDLSSKTALSSTESCTMKGEEKSPKTKKDKRPPILECLEKLEKSKKTFLDKDAQRLSPIPEEVPKSTLESEKPGSPEAAETSPPSNIIDHCEKLASEKEVVECQSTSTVGGQSVKKVDLETLKEDSEFTKVEMDNLDNAQTSGIEEPSETKGSMQKSKFKYKLVPEEETTASENTEITSERQKEGIKLTIRISSRKKKPDSPPKVLEPENKQEKTEKEEEKTNVGRTLRRSPRISRPTAKVAEIRDQKADKKRGEGEDEVEEESTALQKTDKKEILKKSEKDTNSKVSKVKPKGKVRWTGSRTRGRWKYSSNDESEGSGSEKSSAASEEEEEKESEEAILADDDEPCKKCGLPNHPELILLCDSCDSGYHTACLRPPLMIIPDGEWFCPPCQHKLLCEKLEEQLQDLDVALKKKERAERRKERLVYVGISIENIIPPQEPDFSEDQEEKKKDSKKSKANLLERRSTRTRKCISYRFDEFDEAIDEAIEDDIKEADGGGVGRGKDISTITGHRGKDISTILDEERKENKRPQRAAAARRKKRRRLNDLDSDSNLDEEESEDEFKISDGSQDEFVVSDENPDESEEDPPSNDDSDTDFCSRRLRRHPSRPMRQSRRLRRKTPKKKYSDDDEEEESEENSRDSESDFSDDFSDDFVETRRRRSRRNQKRQINYKEDSESDGSQKSLRRGKEIRRVHKRRLSSSESEESYLSKNSEDDELAKESKRSVRKRGRSTDEYSEADEEEEEEEGKPSRKRLHRIETDEEESCDNAHGDANQPARDSQPRVLPSEQESTKKPYRIESDEEEDFENVGKVGSPLDYSLVDLPSTNGQSPGKAIENLIGKPTEKSQTPKDNSTASASLASNGTSGGQEAGAPEEEEDELLRVTDLVDYVCNSEQL
B3: Protein Mis18-alpha (protein, UniProt Q9NYP9 1-233)
chain: MAGVRSLRCSRGCAGGCECGDKGKCSDSSLLGKRLSEDSSRHQLLQKWASMWSSMSEDASVADMERAQLEEEAAAAEERPLVFLCSGCRRPLGDSLSWVASQEDTNCILLRCVSCNVSVDKEQKLSKREKENGCVLETLCCAGCSLNLGYVYRCTPKNLDYKRDLFCLSVEAIESYVLGSSEKQIVSEDKELFNLESRVEIEKSLTQMEDVLKALQMKLWEAESKLSFATCKS
B4: Coiled-Coil-Helix-Coiled-Coil-Helix Domain Containing 4 (protein, UniProt Q8N4Q1 1-142)
chain: MSYCRQEGKDRIIFVTKEDHETPSSAELVADDPNDPYEEHGLILPNGNINWNCPCLGGMASGPCGEQFKSAFSCFHYSTEEIKGSDCVDQFRAMQECMQKYPDLYPQEDEDEEEEREKKPAEQAEETAPIEATATKEEEGSS
B5: Succinate Dehydrogenase Complex Iron Sulfur Subunit B (protein, UniProt P21912 29-280)
chain: AQTAAATAPRIKKFAIYRWDPDKAGDKPHMQTYEVDLNKCGPMVLDALIKIKNEVDSTLTFRRSCREGICGSCAMNINGGNTLACTRRIDTNLNKVSKIYPLPHMYVIKDLVPDLSNFYAQYKSIEPYLKKKDESQEGKQQYLQSIEEREKLDGLYECILCACCSTSCPSYWWNGDKYLGPAVLMQAYRWMIDSRDDFTEERLAKLQDPFSLYRCHTIMNCTRTCPKGLNPGKAIAEIKKMMATYKEKKASV
B6: Delta (3,5)-delta (2,4)-dienoyl-CoA isomerase, mitochondrial (protein, UniProt Q13011 34-328)
chain: TGSSAQEEASGVALGEAPDHSYESLRVTSAQKHVLHVQLNRPNKRNAMNKVFWREMVECFNKISRDADCRAVVISGAGKMFTAGIDLMDMASDILQPKGDDVARISWYLRDIITRYQETFNVIERCPKPVIAAVHGGCIGGGVDLVTACDIRYCAQDAFFQVKEVDVGLAADVGTLQRLPKVIGNQSLVNELAFTARKMMADEALGSGLVSRVFPDKEVMLDAALALAAEISSKSPVAVQSTKVNLLYSRDHSVAESLNYVASWNMSMLQTQDLVKSVQATTENKELKTVTFSKL
B7: Heterogeneous nuclear ribonucleoprotein A0 (protein, UniProt Q13151 1-305)
chain: MENSQLCKLFIGGLNVQTSESGLRGHFEAFGTLTDCVVVVNPQTKRSRCFGFVTYSNVEEADAAMAASPHAVDGNTVELKRAVSREDSARPGAHAKVKKLFVGGLKGDVAEGDLIEHFSQFGTVEKAEIIADKQSGKKRGFGFVYFQNHDAADKAAVVKFHPIQGHRVEVKKAVPKEDIYSGGGGGGSRSSRGGRGGRGRGGGRDQNGLSKGGGGGYNSYGGYGGGGGGGYNAYGGGGGGSSYGGSDYGNGFGGFGSYSQHQSSYGPMKSGGGGGGGGSSWGGRSNSGPYRGGYGGGGGYGGSSF

Assays:
[1] = biological target: T7-2xStrep-JCV Sm t-Ag (JC virus (JCV)) (UniProt P03083); experiment: affinity purification with mass spectrometry
[2] = biological target: T7-2xStrep-JCV LT-Ag (JC virus (JCV)) (UniProt P03072); experiment: affinity purification with mass spectrometry

Molecule	binding [1]	binding [2]
Tumor protein p53 (from UniProt P04637 1-393)	binds	binds
Epithelial protein lost in neoplasm beta variant (from UniProt Q9UHB6 1-759)	binds	binds
Unconventional myosin-Ib (from UniProt O43795 1-1136)	binds	binds
Actin related protein 2/3 complex, subunit 1B, 41 kDa (from UniProt O15143 1-372)	binds	binds
Capping protein (Actin filament) muscle Z-line, alpha 2 variant (from UniProt P47755 1-286)	binds	binds
Heterogeneous nuclear ribonucleoprotein H3 isoform a variant (from UniProt P31942 1-346)	binds	binds
Cortactin isoform a variant (Fragment) (from UniProt Q14247 1-550)	binds	binds
cDNA FLJ51707, highly similar to heat-shock protein 105 kDa (from UniProt Q92598 1-858)	binds	binds
Unconventional myosin-VI (from UniProt Q9UM54 1-1294)	binds	binds
Chromobox homolog 5 (HP1 alpha homolog, Drosophila) (from UniProt P45973 1-191)	binds	binds
B1	binds	binds
B2	binds	
B3	binds	
B4	binds	
B5	binds	
B6	binds	
B7	binds	

No constants are given. Whether binding was seen depends on the method and setting. Binding seen in cells or lysates may run through a third protein. These calls come from enrichment with a bait or labelling near it, and not all partners need be listed.
